± gives the standard deviation of the averaged measurements. This is one part of the list.
Columns and labels:
Experiment in all cases: NP40-soluble protein abundance relative to vehicle (solubility fold change) (ratio); higher = more soluble protein in presence of GTP
[1] = molecular target: T1, H3BT22 and related entries (UniProt Q9Y5N6)
T1 sequence (whole entry): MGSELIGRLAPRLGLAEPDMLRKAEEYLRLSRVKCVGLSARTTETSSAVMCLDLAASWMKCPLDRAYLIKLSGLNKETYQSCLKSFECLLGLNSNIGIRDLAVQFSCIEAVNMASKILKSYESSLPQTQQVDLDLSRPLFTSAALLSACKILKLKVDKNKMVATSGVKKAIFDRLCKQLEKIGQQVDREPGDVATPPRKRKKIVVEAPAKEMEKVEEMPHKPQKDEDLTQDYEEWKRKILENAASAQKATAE
How it was run: (§1)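 Jurkat crude lysate (Dounce-homogenised) was treated with eight concentrations from 0.1 to 10 mM for 10 min at room temperature, then 3 min at 37 °C. It was solubilised with 0.8% NP40 and benzonase (60 min, 4 °C) and ultracentrifuged, and the supernatant was TMT-labelled for LC-MS/MS. Intensities were vsn-normalised, and the value is the fold change against the NP40-processed vehicle per replicate, from three independent experiments.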

[2] = molecular target: T2, H7C4X9 and related entries (UniProt Q9ULU4)
T2 sequence (whole entry): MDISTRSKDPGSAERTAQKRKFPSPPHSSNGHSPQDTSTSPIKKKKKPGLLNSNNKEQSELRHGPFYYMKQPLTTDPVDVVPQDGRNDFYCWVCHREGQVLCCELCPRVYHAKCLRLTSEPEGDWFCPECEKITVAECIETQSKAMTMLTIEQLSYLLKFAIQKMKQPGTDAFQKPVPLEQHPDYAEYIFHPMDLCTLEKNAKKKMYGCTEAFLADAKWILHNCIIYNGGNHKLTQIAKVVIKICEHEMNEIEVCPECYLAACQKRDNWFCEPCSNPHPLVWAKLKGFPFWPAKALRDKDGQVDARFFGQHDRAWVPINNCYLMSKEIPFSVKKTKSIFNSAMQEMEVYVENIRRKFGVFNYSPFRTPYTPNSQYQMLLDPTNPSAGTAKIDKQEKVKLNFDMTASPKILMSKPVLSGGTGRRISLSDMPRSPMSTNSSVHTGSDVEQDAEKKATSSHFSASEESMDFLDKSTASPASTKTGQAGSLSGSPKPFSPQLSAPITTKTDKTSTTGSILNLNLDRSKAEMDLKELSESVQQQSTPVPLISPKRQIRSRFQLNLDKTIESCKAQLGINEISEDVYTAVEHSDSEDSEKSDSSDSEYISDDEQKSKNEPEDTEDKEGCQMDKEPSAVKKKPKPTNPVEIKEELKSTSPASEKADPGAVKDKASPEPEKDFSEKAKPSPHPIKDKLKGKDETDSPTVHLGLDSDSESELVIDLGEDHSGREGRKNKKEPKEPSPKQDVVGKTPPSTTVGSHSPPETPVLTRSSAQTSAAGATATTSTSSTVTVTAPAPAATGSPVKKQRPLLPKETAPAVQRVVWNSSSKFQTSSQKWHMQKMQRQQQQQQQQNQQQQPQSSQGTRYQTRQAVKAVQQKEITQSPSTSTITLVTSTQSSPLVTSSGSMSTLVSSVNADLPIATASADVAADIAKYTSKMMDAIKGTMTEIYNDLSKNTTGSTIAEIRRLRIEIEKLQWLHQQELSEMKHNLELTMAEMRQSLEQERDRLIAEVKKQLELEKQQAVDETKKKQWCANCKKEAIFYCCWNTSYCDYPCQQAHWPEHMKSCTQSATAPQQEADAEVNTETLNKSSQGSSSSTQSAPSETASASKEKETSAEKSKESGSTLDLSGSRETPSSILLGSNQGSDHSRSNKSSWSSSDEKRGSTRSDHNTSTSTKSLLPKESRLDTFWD
How it was run: as §1

[3] = molecular target: T3, J3KPD3 and related entries (UniProt Q9Y580)
T3 sequence (whole entry): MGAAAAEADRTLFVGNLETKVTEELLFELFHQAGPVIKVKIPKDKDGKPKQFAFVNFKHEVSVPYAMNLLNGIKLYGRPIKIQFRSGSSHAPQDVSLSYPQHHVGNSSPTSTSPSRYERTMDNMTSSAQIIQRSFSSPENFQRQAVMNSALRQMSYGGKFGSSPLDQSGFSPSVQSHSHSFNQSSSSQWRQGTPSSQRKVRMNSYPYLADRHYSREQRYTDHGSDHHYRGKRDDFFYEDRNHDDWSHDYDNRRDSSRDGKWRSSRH
How it was run: as §1

[4] = molecular target: T4, J3KPT4 and related entries (UniProt Q9H4I3)
T4 sequence (whole entry): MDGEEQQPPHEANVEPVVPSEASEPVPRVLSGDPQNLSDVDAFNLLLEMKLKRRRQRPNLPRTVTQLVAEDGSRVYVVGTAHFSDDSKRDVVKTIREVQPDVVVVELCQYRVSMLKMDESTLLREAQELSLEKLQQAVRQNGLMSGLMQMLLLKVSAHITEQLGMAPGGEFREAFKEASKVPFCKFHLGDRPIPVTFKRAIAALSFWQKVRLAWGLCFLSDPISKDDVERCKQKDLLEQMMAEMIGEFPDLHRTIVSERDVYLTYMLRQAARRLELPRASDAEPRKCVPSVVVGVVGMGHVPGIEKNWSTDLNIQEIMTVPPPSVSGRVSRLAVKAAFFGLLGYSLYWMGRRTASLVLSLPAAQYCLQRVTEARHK
How it was run: as §1

[5] = molecular target: T5, J3KSZ8 and related entries (UniProt Q68DK7)
T5 sequence (whole entry): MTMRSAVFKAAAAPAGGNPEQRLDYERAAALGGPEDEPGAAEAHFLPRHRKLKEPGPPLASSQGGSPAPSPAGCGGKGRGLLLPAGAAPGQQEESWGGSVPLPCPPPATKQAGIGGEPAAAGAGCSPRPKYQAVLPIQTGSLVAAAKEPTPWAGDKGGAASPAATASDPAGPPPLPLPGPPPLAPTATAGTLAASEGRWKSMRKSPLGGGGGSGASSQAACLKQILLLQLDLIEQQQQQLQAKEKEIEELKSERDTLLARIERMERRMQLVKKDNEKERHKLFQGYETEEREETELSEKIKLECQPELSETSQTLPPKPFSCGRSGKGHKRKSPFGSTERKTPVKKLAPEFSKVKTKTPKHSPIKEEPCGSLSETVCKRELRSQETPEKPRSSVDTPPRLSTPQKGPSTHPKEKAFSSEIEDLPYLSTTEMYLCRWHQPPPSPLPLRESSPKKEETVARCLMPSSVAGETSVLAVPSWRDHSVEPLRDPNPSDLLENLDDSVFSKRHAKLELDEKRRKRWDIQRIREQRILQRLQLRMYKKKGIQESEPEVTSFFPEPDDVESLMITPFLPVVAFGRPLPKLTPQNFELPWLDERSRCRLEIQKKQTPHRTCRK
How it was run: as §1

[6] = molecular target: T6, K7EL81 and related entries (UniProt Q9BZL4)
T6 sequence (whole entry): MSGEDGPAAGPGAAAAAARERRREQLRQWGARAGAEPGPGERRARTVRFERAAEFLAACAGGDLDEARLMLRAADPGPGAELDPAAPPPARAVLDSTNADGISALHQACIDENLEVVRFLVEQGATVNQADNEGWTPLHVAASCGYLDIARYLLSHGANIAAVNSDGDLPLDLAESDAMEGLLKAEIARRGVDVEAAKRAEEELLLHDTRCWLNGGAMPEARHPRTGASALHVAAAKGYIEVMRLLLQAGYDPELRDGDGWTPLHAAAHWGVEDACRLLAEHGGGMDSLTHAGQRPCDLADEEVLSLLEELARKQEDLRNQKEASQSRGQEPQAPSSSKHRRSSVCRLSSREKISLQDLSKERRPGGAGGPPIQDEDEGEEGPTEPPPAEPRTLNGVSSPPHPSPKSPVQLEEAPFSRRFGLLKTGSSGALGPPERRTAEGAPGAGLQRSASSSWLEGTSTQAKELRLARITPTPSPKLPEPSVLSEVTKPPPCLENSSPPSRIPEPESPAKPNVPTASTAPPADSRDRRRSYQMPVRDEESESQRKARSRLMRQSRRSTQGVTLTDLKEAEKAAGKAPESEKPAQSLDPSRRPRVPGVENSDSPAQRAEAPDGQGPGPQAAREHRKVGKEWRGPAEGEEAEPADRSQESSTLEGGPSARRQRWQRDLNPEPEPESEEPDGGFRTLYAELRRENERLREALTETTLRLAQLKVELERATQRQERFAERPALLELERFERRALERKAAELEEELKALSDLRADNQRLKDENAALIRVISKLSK
How it was run: as §1

Structure (SMILES): Nc1nc2c(ncn2[C@@H]2O[C@H](COP(=O)(O)OP(=O)(O)OP(=O)(O)O)[C@@H](O)[C@H]2O)c(=O)[nH]1 [guanosine triphosphate]
- NP40-soluble protein abundance ([1]; concentration: 0.1mM): 0.923 ± 0.056
- NP40-soluble protein abundance ([1]; concentration: 0.5mM): 0.922 ± 0.05
- NP40-soluble protein abundance ([1]; concentration: 1mM): 0.976 ± 0.095
- NP40-soluble protein abundance ([1]; concentration: 2mM): 0.935 ± 0.12
- NP40-soluble protein abundance ([1]; concentration: 4mM): 0.919 ± 0.12
- NP40-soluble protein abundance ([1]; concentration: 6mM): 0.945 ± 0.11
- NP40-soluble protein abundance ([1]; concentration: 8mM): 0.936 ± 0.049
- NP40-soluble protein abundance ([1]; concentration: 10mM): 0.957 ± 0.12
- NP40-soluble protein abundance ([2]; concentration: 0.1mM): 1.05 ± 0.083
- NP40-soluble protein abundance ([2]; concentration: 0.5mM): 1.09 ± 0.11
- NP40-soluble protein abundance ([2]; concentration: 1mM): 1.14 ± 0.1
- NP40-soluble protein abundance ([2]; concentration: 2mM): 1.21 ± 0.081
- NP40-soluble protein abundance ([2]; concentration: 4mM): 1.28 ± 0.11
- NP40-soluble protein abundance ([2]; concentration: 6mM): 1.28 ± 0.092
- NP40-soluble protein abundance ([2]; concentration: 8mM): 1.31 ± 0.13
- NP40-soluble protein abundance ([2]; concentration: 10mM): 1.33 ± 0.15
- NP40-soluble protein abundance ([3]; concentration: 0.1mM): 1.1 ± 0.1
- NP40-soluble protein abundance ([3]; concentration: 0.5mM): 1.07 ± 0.066
- NP40-soluble protein abundance ([3]; concentration: 1mM): 1.12 ± 0.18
- NP40-soluble protein abundance ([3]; concentration: 2mM): 1.21 ± 0.23
- NP40-soluble protein abundance ([3]; concentration: 4mM): 1.33 ± 0.35
- NP40-soluble protein abundance ([3]; concentration: 6mM): 1.33 ± 0.29
- NP40-soluble protein abundance ([3]; concentration: 8mM): 1.35 ± 0.28
- NP40-soluble protein abundance ([3]; concentration: 10mM): 1.35 ± 0.31
- NP40-soluble protein abundance ([4]; concentration: 0.1mM): 1.03 ± 0.03
- NP40-soluble protein abundance ([4]; concentration: 0.5mM): 1.01 ± 0.027
- NP40-soluble protein abundance ([4]; concentration: 1mM): 0.984 ± 0.058
- NP40-soluble protein abundance ([4]; concentration: 2mM): 0.973 ± 0.056
- NP40-soluble protein abundance ([4]; concentration: 4mM): 0.953 ± 0.042
- NP40-soluble protein abundance ([4]; concentration: 6mM): 0.989 ± 0.024
- NP40-soluble protein abundance ([4]; concentration: 8mM): 0.916 ± 0.036
- NP40-soluble protein abundance ([4]; concentration: 10mM): 0.906 ± 0.099
- NP40-soluble protein abundance ([5]; concentration: 0.1mM): 1.02 ± 0.068
- NP40-soluble protein abundance ([5]; concentration: 0.5mM): 1.02 ± 0.069
- NP40-soluble protein abundance ([5]; concentration: 1mM): 1.12 ± 0.15
- NP40-soluble protein abundance ([5]; concentration: 2mM): 1.19 ± 0.13
- NP40-soluble protein abundance ([5]; concentration: 4mM): 1.27 ± 0.26
- NP40-soluble protein abundance ([5]; concentration: 6mM): 1.3 ± 0.18
- NP40-soluble protein abundance ([5]; concentration: 8mM): 1.4 ± 0.36
- NP40-soluble protein abundance ([5]; concentration: 10mM): 1.48 ± 0.41
- NP40-soluble protein abundance ([6]; concentration: 0.1mM): 0.965 ± 0.022
- NP40-soluble protein abundance ([6]; concentration: 0.5mM): 0.917 ± 0.038
- NP40-soluble protein abundance ([6]; concentration: 1mM): 0.986 ± 0.035
- NP40-soluble protein abundance ([6]; concentration: 2mM): 0.964 ± 0.052
- NP40-soluble protein abundance ([6]; concentration: 4mM): 0.987 ± 0.035
- NP40-soluble protein abundance ([6]; concentration: 6mM): 0.973 ± 0.06
- NP40-soluble protein abundance ([6]; concentration: 8mM): 0.981 ± 0.021
- NP40-soluble protein abundance ([6]; concentration: 10mM): 1.03 ± 0.043

Reference: the supplement of paper PMC6411743
